The results in this text go back to paper PMC3722104.

Sequences of proteins named here, by UniProt entry; tags and fusion partners are left off. A change or cut given only in a name is not applied to a line headed by its entry. Residues count along the entry.
UniProt Q91ZX7: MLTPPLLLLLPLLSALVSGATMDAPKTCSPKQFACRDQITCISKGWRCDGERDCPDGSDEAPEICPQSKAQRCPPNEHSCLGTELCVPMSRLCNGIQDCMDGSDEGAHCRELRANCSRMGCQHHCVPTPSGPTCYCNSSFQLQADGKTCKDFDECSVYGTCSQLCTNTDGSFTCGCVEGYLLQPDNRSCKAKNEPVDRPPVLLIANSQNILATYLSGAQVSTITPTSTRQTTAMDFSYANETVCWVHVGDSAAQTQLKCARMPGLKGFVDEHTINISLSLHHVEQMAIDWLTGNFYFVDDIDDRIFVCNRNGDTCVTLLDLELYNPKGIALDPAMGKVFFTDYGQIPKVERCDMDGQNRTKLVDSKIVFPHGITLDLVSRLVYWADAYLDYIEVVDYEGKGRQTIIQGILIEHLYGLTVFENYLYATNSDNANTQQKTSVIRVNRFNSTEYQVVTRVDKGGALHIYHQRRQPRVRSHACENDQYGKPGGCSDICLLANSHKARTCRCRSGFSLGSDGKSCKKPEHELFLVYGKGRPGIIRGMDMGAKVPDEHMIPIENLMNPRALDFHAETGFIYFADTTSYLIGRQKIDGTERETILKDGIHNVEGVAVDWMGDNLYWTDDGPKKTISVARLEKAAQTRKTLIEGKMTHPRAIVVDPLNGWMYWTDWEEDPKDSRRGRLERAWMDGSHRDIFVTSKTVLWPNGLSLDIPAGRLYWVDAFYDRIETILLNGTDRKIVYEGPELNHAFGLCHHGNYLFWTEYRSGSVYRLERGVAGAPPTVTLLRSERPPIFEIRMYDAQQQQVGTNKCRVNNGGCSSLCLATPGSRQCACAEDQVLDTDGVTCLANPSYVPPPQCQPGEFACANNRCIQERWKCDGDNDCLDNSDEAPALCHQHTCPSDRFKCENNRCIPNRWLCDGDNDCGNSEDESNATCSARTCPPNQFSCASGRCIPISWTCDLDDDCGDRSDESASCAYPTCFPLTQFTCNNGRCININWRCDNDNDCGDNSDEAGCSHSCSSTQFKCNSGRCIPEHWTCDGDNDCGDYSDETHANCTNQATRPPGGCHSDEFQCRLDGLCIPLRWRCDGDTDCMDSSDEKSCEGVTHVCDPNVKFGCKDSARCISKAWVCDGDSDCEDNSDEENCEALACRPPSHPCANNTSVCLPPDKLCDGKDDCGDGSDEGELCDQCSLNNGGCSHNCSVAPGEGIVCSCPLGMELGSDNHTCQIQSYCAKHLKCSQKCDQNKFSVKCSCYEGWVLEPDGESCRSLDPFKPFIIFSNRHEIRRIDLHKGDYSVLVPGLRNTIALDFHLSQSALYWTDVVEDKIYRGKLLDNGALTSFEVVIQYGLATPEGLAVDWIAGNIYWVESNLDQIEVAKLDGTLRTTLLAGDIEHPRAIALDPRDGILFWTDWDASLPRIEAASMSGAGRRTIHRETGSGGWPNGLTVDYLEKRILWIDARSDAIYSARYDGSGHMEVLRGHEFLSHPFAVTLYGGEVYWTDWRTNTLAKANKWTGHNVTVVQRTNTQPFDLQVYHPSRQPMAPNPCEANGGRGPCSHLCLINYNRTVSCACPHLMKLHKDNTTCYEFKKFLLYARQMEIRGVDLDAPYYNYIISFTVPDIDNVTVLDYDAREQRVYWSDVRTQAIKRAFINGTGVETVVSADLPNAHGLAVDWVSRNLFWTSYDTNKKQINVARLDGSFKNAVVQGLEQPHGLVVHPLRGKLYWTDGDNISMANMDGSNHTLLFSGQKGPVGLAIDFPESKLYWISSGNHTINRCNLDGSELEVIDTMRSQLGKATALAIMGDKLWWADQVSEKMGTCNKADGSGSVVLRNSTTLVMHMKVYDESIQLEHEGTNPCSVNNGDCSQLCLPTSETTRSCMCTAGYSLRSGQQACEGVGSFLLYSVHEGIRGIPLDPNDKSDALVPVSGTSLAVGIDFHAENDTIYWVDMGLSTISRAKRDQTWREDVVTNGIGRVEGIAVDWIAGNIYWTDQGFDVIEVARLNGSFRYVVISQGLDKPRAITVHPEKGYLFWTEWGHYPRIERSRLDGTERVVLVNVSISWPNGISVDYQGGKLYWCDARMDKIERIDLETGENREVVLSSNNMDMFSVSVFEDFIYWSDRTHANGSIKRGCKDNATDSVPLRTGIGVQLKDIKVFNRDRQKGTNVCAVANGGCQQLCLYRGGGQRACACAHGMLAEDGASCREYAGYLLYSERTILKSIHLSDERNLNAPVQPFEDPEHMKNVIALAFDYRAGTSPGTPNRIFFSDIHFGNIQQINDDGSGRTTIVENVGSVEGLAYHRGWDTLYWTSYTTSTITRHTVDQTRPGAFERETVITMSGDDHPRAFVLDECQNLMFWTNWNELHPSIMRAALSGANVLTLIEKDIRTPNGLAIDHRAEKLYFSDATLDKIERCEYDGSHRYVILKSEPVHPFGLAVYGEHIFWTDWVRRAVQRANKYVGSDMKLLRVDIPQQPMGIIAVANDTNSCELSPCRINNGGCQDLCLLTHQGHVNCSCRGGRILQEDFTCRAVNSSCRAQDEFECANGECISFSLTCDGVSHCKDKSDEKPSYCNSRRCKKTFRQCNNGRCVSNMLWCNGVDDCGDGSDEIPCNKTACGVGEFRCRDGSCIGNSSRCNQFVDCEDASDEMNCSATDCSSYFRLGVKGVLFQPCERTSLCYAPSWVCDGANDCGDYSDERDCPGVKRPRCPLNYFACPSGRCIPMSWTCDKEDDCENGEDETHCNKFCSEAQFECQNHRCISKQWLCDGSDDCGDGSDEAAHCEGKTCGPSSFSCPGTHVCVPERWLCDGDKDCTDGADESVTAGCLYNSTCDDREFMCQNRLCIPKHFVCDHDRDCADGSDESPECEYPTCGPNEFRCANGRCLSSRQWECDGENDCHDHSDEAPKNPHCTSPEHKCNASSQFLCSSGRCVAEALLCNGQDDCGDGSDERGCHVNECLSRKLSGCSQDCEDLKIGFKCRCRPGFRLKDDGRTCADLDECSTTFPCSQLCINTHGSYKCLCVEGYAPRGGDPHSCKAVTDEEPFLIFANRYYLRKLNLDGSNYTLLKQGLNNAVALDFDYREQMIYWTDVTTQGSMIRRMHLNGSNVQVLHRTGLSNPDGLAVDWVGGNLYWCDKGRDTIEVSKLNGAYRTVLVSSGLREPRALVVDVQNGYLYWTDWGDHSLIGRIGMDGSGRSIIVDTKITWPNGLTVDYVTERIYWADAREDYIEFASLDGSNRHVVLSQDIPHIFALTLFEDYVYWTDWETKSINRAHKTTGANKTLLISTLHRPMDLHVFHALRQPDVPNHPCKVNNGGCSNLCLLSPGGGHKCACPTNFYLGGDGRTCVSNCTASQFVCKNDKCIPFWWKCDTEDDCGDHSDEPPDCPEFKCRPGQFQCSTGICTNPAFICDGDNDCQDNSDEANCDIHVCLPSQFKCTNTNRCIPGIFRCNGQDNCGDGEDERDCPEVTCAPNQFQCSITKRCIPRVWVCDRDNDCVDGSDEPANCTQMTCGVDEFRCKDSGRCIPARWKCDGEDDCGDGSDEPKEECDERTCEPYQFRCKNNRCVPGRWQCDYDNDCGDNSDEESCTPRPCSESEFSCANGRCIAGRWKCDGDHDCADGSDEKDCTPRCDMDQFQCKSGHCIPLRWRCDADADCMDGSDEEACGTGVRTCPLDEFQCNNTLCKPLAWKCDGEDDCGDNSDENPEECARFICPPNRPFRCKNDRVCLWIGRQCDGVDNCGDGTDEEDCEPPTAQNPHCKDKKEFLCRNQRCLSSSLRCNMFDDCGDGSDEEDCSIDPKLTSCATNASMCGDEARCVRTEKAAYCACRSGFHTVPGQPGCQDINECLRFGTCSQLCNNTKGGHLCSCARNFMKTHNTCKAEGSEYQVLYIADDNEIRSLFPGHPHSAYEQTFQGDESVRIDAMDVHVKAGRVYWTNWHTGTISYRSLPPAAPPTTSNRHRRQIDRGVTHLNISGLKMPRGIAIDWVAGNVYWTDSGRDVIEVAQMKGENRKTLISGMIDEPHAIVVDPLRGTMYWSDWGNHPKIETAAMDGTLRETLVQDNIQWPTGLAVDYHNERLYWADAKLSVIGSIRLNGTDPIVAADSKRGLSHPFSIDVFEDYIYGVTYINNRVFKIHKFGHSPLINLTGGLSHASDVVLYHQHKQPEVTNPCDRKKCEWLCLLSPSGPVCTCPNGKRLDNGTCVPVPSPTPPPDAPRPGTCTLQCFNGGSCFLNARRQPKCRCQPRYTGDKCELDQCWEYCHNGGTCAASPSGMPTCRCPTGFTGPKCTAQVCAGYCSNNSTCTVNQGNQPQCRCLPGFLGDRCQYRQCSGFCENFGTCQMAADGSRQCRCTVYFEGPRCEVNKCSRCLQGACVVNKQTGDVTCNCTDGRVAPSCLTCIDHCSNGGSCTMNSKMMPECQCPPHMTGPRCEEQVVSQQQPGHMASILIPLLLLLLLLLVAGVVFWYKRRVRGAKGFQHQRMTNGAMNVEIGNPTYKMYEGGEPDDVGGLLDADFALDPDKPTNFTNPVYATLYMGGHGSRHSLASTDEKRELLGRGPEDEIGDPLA
UniProt Q01097, residues 27-1482: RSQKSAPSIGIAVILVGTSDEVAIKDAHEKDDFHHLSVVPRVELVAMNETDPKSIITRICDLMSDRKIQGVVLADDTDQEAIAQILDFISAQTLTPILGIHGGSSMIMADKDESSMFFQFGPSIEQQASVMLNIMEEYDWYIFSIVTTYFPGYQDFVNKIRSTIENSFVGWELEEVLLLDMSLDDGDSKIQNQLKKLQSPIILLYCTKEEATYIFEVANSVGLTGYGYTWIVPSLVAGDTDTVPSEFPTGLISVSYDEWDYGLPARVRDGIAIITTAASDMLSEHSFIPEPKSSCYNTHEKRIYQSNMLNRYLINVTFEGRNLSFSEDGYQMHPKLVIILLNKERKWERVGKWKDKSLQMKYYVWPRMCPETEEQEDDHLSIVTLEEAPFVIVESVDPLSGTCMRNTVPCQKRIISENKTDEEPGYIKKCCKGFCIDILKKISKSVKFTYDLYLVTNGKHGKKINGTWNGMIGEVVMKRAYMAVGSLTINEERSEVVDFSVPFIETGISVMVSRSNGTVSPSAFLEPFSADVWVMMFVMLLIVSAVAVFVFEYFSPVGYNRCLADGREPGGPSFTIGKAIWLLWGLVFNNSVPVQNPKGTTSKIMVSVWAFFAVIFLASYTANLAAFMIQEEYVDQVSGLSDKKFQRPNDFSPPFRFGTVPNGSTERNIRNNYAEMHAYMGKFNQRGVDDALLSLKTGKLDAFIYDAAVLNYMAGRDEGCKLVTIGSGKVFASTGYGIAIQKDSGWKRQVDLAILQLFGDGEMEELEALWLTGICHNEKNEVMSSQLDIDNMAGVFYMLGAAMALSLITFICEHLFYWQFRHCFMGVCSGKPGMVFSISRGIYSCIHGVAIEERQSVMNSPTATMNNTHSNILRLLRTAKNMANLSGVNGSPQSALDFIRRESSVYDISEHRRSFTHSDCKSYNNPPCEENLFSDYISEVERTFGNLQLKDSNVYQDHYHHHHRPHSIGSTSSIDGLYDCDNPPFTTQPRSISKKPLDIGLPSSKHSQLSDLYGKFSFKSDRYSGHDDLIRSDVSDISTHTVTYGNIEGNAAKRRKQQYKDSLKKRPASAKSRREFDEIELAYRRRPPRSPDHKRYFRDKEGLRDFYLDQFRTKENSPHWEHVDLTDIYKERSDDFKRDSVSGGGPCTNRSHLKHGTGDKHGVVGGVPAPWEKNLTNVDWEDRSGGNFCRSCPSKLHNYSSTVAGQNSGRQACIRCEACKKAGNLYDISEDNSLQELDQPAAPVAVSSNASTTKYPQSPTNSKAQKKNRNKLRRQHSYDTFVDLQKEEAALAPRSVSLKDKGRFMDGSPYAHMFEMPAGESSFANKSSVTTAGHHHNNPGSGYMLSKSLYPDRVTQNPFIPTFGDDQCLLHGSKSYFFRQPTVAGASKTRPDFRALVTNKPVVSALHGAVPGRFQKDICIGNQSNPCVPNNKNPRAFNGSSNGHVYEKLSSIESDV

These are yes or no findings as the source states them, for the method shown. Binding seen in cells or lysates may run through a third protein. A result given as binding can be weak or reduced; the word gives no strength.

Test [1] addresses LRP1 with alanine substituted NPxY2 motif (LRP1ΔNPxY2) (mouse (endogenous in primary cortical neurons)) (UniProt Q91ZX7). In words: co-IP; lysates of primary cortical neurons (WT or LRP1ΔNPxY2) in RIPA buffer with protease and phosphatase inhibitors; equal amounts of total lysate (80 µg) precipitated with polyclonal LRP1 antibody 1704 and protein G sepharose at 4°C overnight; Western blot for NR1, NR2B or PSD95. Background: Immunoblotting shows a protein as a band on a membrane.

Test [2] shares this target. In words: co-IP; neuronal lysates in RIPA buffer with protease inhibitors, 100 µg protein treated with 1000 units calf intestinal phosphatase (CIP) in phosphatase buffer (50 mM Tris-HCl, 100 mM NaCl, 10 mM MgCl2, 1 mM DTT, pH 7.9) at 37°C for 30 min before immunoprecipitation of LRP1 and Western blot.

With “NMDA receptor subunit 2B (NR2B) (from UniProt Q01097 27-1482)”, the binding entry in test [1] and in test [2] was “binds” throughout.
